From paper PMC12469358, “Synthesis of novel phenoxyacetohydrazide compounds and evaluation therapeutic potential exhibit as anti-inflammatory and anti-angiogenic” (PLOS One, 2025)

Test system: human red blood cell (HRBC) membrane
Experiment: Human red blood cell (HRBC) membrane stabilization assay
Format: cell-based
Conditions: n = 6
Description: The human red blood cell (HRBC) membrane stabilization method was employed to evaluate the anti-inflammatory activity of the compounds, as previously described. For test the in vitro anti-inflammatory activity of synthesized compounds (6e-h), blood samples were collected from healthy volunteers who had not taken NSAIDs for 14 days. The blood was mixed with an equal volume of sterilized Alsever’s solution, centrifuged at 3000 rpm, and the packed cells were washed with isotonic saline (0.9% w/v NaCl). A 10% cell suspension was then prepared using isotonic saline. The test compounds were dissolved in DMSO to prepare solutions at concentrations of 50, 100, 150, 200, and 250 μg/ml. For each concentration, a mixture containing 1 ml of phosphate buffer, 2 ml of hypotonic saline, and 0.5 ml of the HRBC suspension was prepared. The samples were incubated at 37°C for 30 minutes and centrifuged at 3000 rpm for 20 minutes. The hemoglobin content in the supernatant was determined spectrophotometrically at 560 nm. Indomethacin at the same concentrations (50–250 μg/ml) was used as the reference standard, and a control sample was prepared without the test compounds. The percentage hemolysis was calculated by considering the hemolysis in the control group as 100%. The percentage of HRBC membrane stabilization or protection was determined using the following formula:
percent protection=100−((OD of drug treated sample/OD of control) ×100).

Row | SMILES | Absorbance at 560nm (50 µg) | Absorbance at 560nm (100 µg) | Absorbance at 560nm (150 µg) | Absorbance at 560nm (200 µg) | Absorbance at 560nm (250 µg)
1 | O=C(CCCOc1ccc(F)cc1)NNC(=O)C1CN(Cc2ccccc2)CCO1 (stereo not shown) [6e, 4-Benzyl-N’-(4-(4-fluorophenoxy)butanoyl)morpholine-2-carbohydrazide] | 0.702 ± 0.001 | 0.634 ± 0.002 | 0.601 ± 0.007 | 0.449 ± 0.004 | 0.389 ± 0.002
2 | COc1ccc2c(c1)c(CC(=O)O)c(C)n2C(=O)c1ccc(Cl)cc1 [Indomethacin, reference compound] | 0.601 ± 0.003 | 0.501 ± 0.001 | 0.398 ± 0.001 | 0.298 ± 0.002 | 0.188 ± 0.008
